Assay results published in PubChem BioAssay AID1259354 (Paczesny and Yang Labs, IUPUI and University of Michigan, 2018).
Values joined by “and” are separate entries in the source; they are usually repeats but may differ in a detail not shown here. Equal entries are not always repeated. The campaign covered roughly 78,000 compounds. About 1,800 (2.3%) were called active. The inconclusive results got no clear call from the source; some entries with a clear call stand among them for comparison. Rule as the data show it: active = inhibition above about 30%; inconclusive = mostly about 10% to 28%; inactive = weaker than that.

By UniProt entry, the sequences of proteins in these tests, tags left out. Where a name states a change or a piece, a line headed by the entry shows the natural chain unless it says otherwise.
UniProt Q01638: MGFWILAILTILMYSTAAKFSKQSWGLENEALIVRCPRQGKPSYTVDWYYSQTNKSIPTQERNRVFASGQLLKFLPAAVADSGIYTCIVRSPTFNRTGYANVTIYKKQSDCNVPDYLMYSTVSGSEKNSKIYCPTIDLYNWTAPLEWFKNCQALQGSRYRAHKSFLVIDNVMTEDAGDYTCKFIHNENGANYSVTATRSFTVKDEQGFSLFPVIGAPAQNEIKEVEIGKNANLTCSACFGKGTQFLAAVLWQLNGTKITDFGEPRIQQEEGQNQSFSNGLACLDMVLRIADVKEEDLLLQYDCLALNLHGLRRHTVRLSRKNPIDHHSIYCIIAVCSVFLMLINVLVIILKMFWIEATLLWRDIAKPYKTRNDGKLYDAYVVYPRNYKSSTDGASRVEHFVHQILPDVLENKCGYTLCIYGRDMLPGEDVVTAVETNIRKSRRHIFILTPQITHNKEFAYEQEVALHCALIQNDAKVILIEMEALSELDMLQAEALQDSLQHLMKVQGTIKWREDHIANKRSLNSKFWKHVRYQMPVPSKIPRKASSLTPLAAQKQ

target: Interleukin-1 receptor-like 1 (Homo sapiens) (UniProt Q01638); assay: blocks human ST2 binding to IL-33, primary screen, biochemical, AlphaLISA (AID 1259354); conditions: AlphaLISA ST2-Fc/biotin-IL-33 interaction, 1 h; at 17 µM, active compounds read high

How did the inhibition turn out when `O=C(NCCSc1ccccn1)c1ccc([N+](=O)[O-])cc1` was run?
The inhibition was “inactive”.

For `CCc1nnc(CN2CCCN(CC3CC3)C(C(C)C)C2)o1` (stereo unspecified), which inhibition is on record?
The inhibition was “inactive”.

With `CSc1nnc(C(O)c2ccccc2)n1-c1ccccc1` (stereo unspecified) as the molecule, how does the inhibition read?
Its inhibition is inconclusive: 16%.

With `Cc1ccccc1CN(CC1CCCO1)C(=O)CCN1CCCCO1` (stereo unspecified) as the molecule, how does the inhibition read?
The inhibition was inconclusive: 17%.

For `CC1CCC2(OC1)OC1CC3C4CC=C5CC(OC6OC(C)C(OC7OC(C)C(OC8OC(CO)C(O)C(O)C8O)C(O)C7O)C(O)C6OC6OC(C)C(O)C(O)C6O)CCC5(C)C4CCC3(C)C1(O)C2C` (stereo unspecified), which inhibition is on record?
The inhibition was “inactive”.

Which inhibition does the source give for `O=C(NCCc1nc2cccnc2n1C1CCCCC1)Nc1ccc(F)cc1` here?
Its inhibition is inconclusive: 11%.

`CCNc1nc(C23CC4CC(CC(C4)C2)C3)cs1` was tested. Which inhibition did it give?
Its inhibition is inconclusive: 12%.

`O=C(Nc1nc2ccc(Cl)cc2s1)c1ccc([N+](=O)[O-])cc1Cl` was tested. Which inhibition did it give?
Its inhibition is inconclusive: 18%.

How did the inhibition turn out when `CCC(CC)C(=O)NC1CC(=O)N(c2ccc(Cl)cc2)C1` (stereo unspecified) was run?
Its inhibition is “inactive”.

Which inhibition does the source give for `CCSc1nnc(-c2ccncc2)n1-c1ccccc1` here?
Its inhibition is inconclusive: 21%.

`COc1ccc(CCNc2ncnc3sc4c(c23)CCCC4)cc1OC` was tested. Which inhibition did it give?
The inhibition was inconclusive: 16%.

`O=C(Cn1cnc2c(oc3ccccc32)c1=O)NC1CCCCC1` was tested. Which inhibition did it give?
Its inhibition is inconclusive: 10%.

`O=C(NCC1(c2ccccc2)CCCC1)C1CCCN(S(=O)(=O)c2cnc[nH]2)C1` (stereo unspecified) was tested. Which inhibition did it give?
Its inhibition is inconclusive: 13%.

Which inhibition does the source give for `Cc1ccc(C)c(CSC2=NCCN2C(=O)C2CC2)c1` here?
The inhibition was “inactive”.

With `COC(=O)Nc1nc2ccc(C(=O)c3cccs3)cc2[nH]1` as the molecule, how does the inhibition read?
The inhibition was inconclusive: 16% and inconclusive: 11%.

How did the inhibition turn out when `Cc1cc(C)n(CC(C)NCCN2CCc3ccccc32)n1` (stereo unspecified) was run?
Its inhibition is inconclusive: 10%.

`CCCN(CCC)S(=O)(=O)c1cc(Br)cc2c1N(C(C)=O)C(C)C2` (stereo unspecified) was tested. Which inhibition did it give?
Its inhibition is “inactive”.

Which inhibition does the source give for `O=C(CN1C(=O)c2ccccc2C1=O)Nc1ccc(Br)cc1` here?
The inhibition was active: 34%.

With `Cc1cc(C)n(C(C)C(=O)NCC(=O)Nc2ccc(F)c(F)c2F)n1` (stereo unspecified) as the molecule, how does the inhibition read?
Its inhibition is “inactive”.

For `Cn1c(SCC(=O)Nc2ccc(Cl)c(Cl)c2)nc2c([nH]c3ccccc32)c1=O`, which inhibition is on record?
The inhibition was “inactive”.

Which inhibition does the source give for `O=C(C[C@@H]1CCNC[C@@H]1Cc1cc(-c2ccccc2)on1)N1CCCCC1` here?
Its inhibition is inconclusive: 12%.

`CC(C)c1nccn1S(=O)(=O)c1ccc(I)cc1` was tested. Which inhibition did it give?
Its inhibition is “inactive”.

Which inhibition does the source give for `Fc1cccc(CSc2c[nH]c3ccccc23)c1` here?
The inhibition was inconclusive: 10%.

How did the inhibition turn out when `Cc1cccc(C(=O)Nc2ncc([N+](=O)[O-])s2)c1` was run?
Its inhibition is inconclusive: 11%.

For `CN1CCN(CCCN2c3ccccc3Sc3ccc(C(F)(F)F)cc32)CC1`, which inhibition is on record?
Its inhibition is inconclusive: 22%.

`O=c1c2sccc2n(Cc2ccc([N+](=O)[O-])cc2)c(=O)n1-c1cc(F)ccc1F` was tested. Which inhibition did it give?
Its inhibition is “inactive”.
